Experimental data published in US20090241205A1, “METHOD FOR IDENTIFYING CRMP MODULATORS” (priority 2006, published 2009).
For at least one compound, name, drawing or mass did not settle the structure.

Tested on: hippocampal primary cells
Test: axon growth in hippocampal primary cells (Tau-1 immunofluorescence)
Assay type: cell-based
Conditions: for BDNF-induced axonal growth: 200 ng/ml BDNF
Method: It could be shown that the neurotrophins NT3 and BDNF stimulate axonal outgrowth in a primary culture of embryonal hippocampal neurons. Quantification of neurite outgrowth was performed by immunofluorescence microscopy employing an antibody against the axonal marker protein Tau-1.

COC[C@H]1OC(=O)c2coc3c2[C@@]1(C)C1=C(C3=O)[C@@H]2CCC(=O)[C@@]2(C)C[C@H]1OC(C)=O [Wortmannin]
significantly decreases: NT3-induced axonal growth (50 ng/ml NT3, 400 nM Wortmannin) | BDNF-induced axonal growth (200 nM Wortmannin) | BDNF-induced axonal growth (400 nM Wortmannin)
